From PubChem BioAssay AID248 (DTP/NCI, 2004)
The list does not hold the whole screen: it is rich in T/C values a quarter to a half above the control, in often repeated tests (any T/C) and in doses without a T/C. Further doses and runs are listed elsewhere. T/C gives the treated animals as a percentage of the vehicle group. Some entries give survivors of the animals treated and no T/C: the source files T/C as zero there, which appears to mark a toxic dose or a test without result, not a measured value. Some doses without a T/C left all or most animals alive at the check, yet need not have been tolerated: the source hardly ever lists a survival T/C far under the control, and the zero likely stands for such cases as well. Survivors were counted at the toxicity check, usually on the fifth day, unless a day is given; later deaths do not show. Schedule codes are those of the source, read here as Q, the interval in days (D) or hours (H), X, the number of doses. Some doses were run more than once; the results are listed from low to high. Some schedules carry Z or #; the key to these is not given. For survival time, the PubChem record calls one and a half times the control and up active, and a quarter to a half above the control has no call in these data; cut-offs in other NCI protocols can differ. Signs of the kind (2×) say how often a value occurs here. Some T/C values carry the count of animals alive at the toxicity check (mostly the fifth day); where none is given, no animal had died by that day.

System: L1210 leukemia ip in BDF1 mice, survival T/C
Assay: NCI In Vivo Anticancer Drug Screen. Data for tumor model L1210 Leukemia (intraperitoneal) in B6D2F1 (BDF1) mice
Settings: T/C endpoint: mean survival time, higher T/C = longer survival
[1] = dose: 200.0 mg/kg/injection, schedule: Q04DX003 (ip), vehicle: saline with Tween-80
[2] = dose: 400.0 mg/kg/injection, schedule: Q04DX003 (ip), vehicle: saline with Tween-80
[3] = dose: 400.0 mg/kg/injection, schedule: Q01DX009 (ip), vehicle: Klucel (hydroxypropylcellulose) (HPC)

Q: Which results are given for O=c1[nH]cnc2c1ncn2C1OC(CO)C(O)C1O (stereo not drawn)?
A: T/C (dose: 125.0 mg/kg/injection, schedule: Q06HX008 (ip), vehicle: steroid suspending solution, evaluated on day 5): 102 % of control; T/C (dose: 125.0 mg/kg/injection, schedule: Q06HX008 (ip), vehicle: steroid suspending solution, evaluated on day 6): 95 % of control; T/C (dose: 125.0 mg/kg/injection, schedule: Q06HX008 (ip), vehicle: steroid suspending solution, evaluated on day 19): 102 % of control; T/C (dose: 125.0 mg/kg/injection, schedule: Q06HX008 (ip), vehicle: steroid suspending solution, evaluated on day 60): 95 % of control (2×); T/C (dose: 250.0 mg/kg/injection, schedule: Q06HX008 (ip), vehicle: steroid suspending solution, evaluated on day 5): 102 % of control; T/C (dose: 250.0 mg/kg/injection, schedule: Q06HX008 (ip), vehicle: steroid suspending solution, evaluated on day 6): 103 % of control; T/C (dose: 250.0 mg/kg/injection, schedule: Q06HX008 (ip), vehicle: steroid suspending solution, evaluated on day 19): 102 % of control; T/C (dose: 250.0 mg/kg/injection, schedule: Q06HX008 (ip), vehicle: steroid suspending solution, evaluated on day 60): 101 and 103 % of control; T/C (dose: 500.0 mg/kg/injection, schedule: Q06HX008 (ip), vehicle: steroid suspending solution, evaluated on day 5): 102 % of control; T/C (dose: 500.0 mg/kg/injection, schedule: Q06HX008 (ip), vehicle: steroid suspending solution, evaluated on day 6): 101 % of control; T/C (dose: 500.0 mg/kg/injection, schedule: Q06HX008 (ip), vehicle: steroid suspending solution, evaluated on day 19): 102 % of control; T/C (dose: 500.0 mg/kg/injection, schedule: Q06HX008 (ip), vehicle: steroid suspending solution, evaluated on day 60): 96 and 101 % of control; T/C (dose: 1000.0 mg/kg/injection, schedule: Q06HX008 (ip), vehicle: steroid suspending solution, evaluated on day 5): 97 % of control; T/C (dose: 1000.0 mg/kg/injection, schedule: Q06HX008 (ip), vehicle: steroid suspending solution, evaluated on day 6): 106 % of control; T/C (dose: 1000.0 mg/kg/injection, schedule: Q06HX008 (ip), vehicle: steroid suspending solution, evaluated on day 19): 97 % of control [7 of 8 alive]; T/C (dose: 1000.0 mg/kg/injection, schedule: Q06HX008 (ip), vehicle: steroid suspending solution, evaluated on day 60): 93 and 106 % of control

Q: CC(=O)[O][Hg][c]1c(C)c(C)cc(C)c1C was tested. Which survivor count (dose: 100.0 mg/kg/injection, schedule: Q04DX003 (ip), vehicle: saline with Tween-80) did it give?
A: 3 of 6

Q: And the survivor count [1]?
A: 1 of 6

Q: And the survivor count [2]?
A: 0 of 6

Q: Nc1ccc(NC(=O)C(=O)O)cc1 was tested. Which survivor count [2] did it give?
A: 5 of 6

Q: Which results are given for CCN(CC)Cc1cc(-n2cnc3c(Cl)ncnc32)ccc1O?
A: survivor count (dose: 25.0 mg/kg/injection, schedule: Q04DX003 (ip), vehicle: saline): 2 of 6; survivor count (dose: 50.0 mg/kg/injection, schedule: Q04DX003 (ip), vehicle: saline): 0 of 6; survivor count (dose: 100.0 mg/kg/injection, schedule: Q04DX003 (ip), vehicle: saline): 0 of 6

Q: How did the survivor count [1] turn out when O=C(OCC(O)C1OC(c2ccccc2)OC1C(O)COC(=O)c1ccccc1)c1ccccc1 (stereo not drawn) was run?
A: 1 of 1

Q: Which results are given for CC(=O)OC(C)C(C)C(=O)OCC12C3CC4(C)C(=CCC5C6(C)CCC(OC7OC(C(=O)O)C(OC8OC(CO)C(O)C(O)C8O)C(O)C7OC7OCC(O)C(O)C7O)C(C)(CO)C6CCC54C)C1CC(C)(C)C(O3)C2O (stereo not drawn)?
A: survivor count (dose: 10.0 mg/kg/injection, schedule: Q01DX001 (sc), vehicle: steroid suspending solution): 1 of 6; survivor count (dose: 20.0 mg/kg/injection, schedule: Q01DX001 (sc), vehicle: steroid suspending solution): 2 of 6; survivor count (dose: 40.0 mg/kg/injection, schedule: Q01DX001 (sc), vehicle: steroid suspending solution): 0 of 6; survivor count (dose: 80.0 mg/kg/injection, schedule: Q01DX001 (sc), vehicle: steroid suspending solution): 0 of 6; survivor count (dose: 100.0 mg/kg/injection, schedule: Q01DX001 (sc), vehicle: steroid suspending solution): 2 of 6; survivor count (dose: 200.0 mg/kg/injection, schedule: Q01DX001 (sc), vehicle: steroid suspending solution): 1 of 6

Q: Which results are given for OCC1OC(n2cnc3c([Se]Cc4ccccn4)ncnc32)C(O)C1O (stereo not drawn)?
A: survivor count (dose: 25.0 mg/kg/injection, schedule: Q01DX009 (ip), vehicle: saline): 2 of 6; survivor count (dose: 50.0 mg/kg/injection, schedule: Q01DX009 (ip), vehicle: saline): 0 of 6; survivor count (dose: 100.0 mg/kg/injection, schedule: Q01DX005 (ip), vehicle: saline): 0 of 6; survivor count (dose: 100.0 mg/kg/injection, schedule: Q01DX009 (ip), vehicle: saline): 0 of 6; survivor count (dose: 200.0 mg/kg/injection, schedule: Q01DX005 (ip), vehicle: saline): 0 of 6

Q: Which survivor count (dose: 2.2 mg/kg/injection, schedule: Q01DX Z (ip), vehicle: methylcellulose (MC)) does the source give for O=C1C=CC(=O)N1CCCCCCCCCCN1C(=O)C=CC1=O here?
A: 1 of 6

Q: What about the survivor count (dose: 3.3 mg/kg/injection, schedule: Q01DX Z (ip), vehicle: methylcellulose (MC)) of the same compound?
A: 2 of 6

Q: What about the survivor count (dose: 5.0 mg/kg/injection, schedule: Q01DX Z (ip), vehicle: methylcellulose (MC)) of the same compound?
A: 2 of 6

Q: How did the survivor count (dose: 200.0 mg/kg/injection, schedule: Q01DX009 (ip), vehicle: Klucel (hydroxypropylcellulose) (HPC)) turn out when O=C1OC(=O)C2C3C=CC(C3)C12 (stereo not drawn) was run?
A: 3 of 6

Q: What about the survivor count [3] of the same compound?
A: 0 of 6

Q: And the survivor count (dose: 400.0 mg/kg/injection, schedule: Q04DX003 (ip), vehicle: Klucel (hydroxypropylcellulose) (HPC))?
A: 6 of 6

Q: How did the survivor count (dose: 100.0 mg/kg/injection, schedule: Q01DX009 (ip), vehicle: Klucel (hydroxypropylcellulose) (HPC)) turn out when CCCCCCCCCCCCSC(=O)Nc1ccc([N+](=O)[O-])cc1Cl was run?
A: 3 of 6

Q: With CCN=C(Nc1ccc(C(=NC)NCC)cc1)c1ccc(C(=NCC)Nc2ccc(C(=NC)NCC)cc2)cc1 as the compound, how does the survivor count (dose: 6.0 mg/kg/injection, schedule: Q01DX Z (ip), vehicle: saline) read?
A: 1 of 6 and 6 of 6

Q: And the survivor count (dose: 10.0 mg/kg/injection, schedule: Q01DX Z (ip), vehicle: saline)?
A: 0 of 6

Q: What about the survivor count (dose: 15.0 mg/kg/injection, schedule: Q01DX Z (ip), vehicle: saline) of the same compound?
A: 0 of 6

Q: And the survivor count (dose: 22.0 mg/kg/injection, schedule: Q01DX Z (ip), vehicle: saline)?
A: 0 of 6

Q: How did the T/C (dose: 30.0 mg/kg/injection, schedule: Q01DX015 (ip), vehicle: carboxymethylcellulose (CMC)) turn out when O=[As](O)(O)c1ccc(N=NSc2ncnc3nc[nH]c23)cc1 was run?
A: 125 % of control [4 of 6 alive]

Q: What about the survivor count (dose: 60.0 mg/kg/injection, schedule: Q01DX015 (ip), vehicle: carboxymethylcellulose (CMC)) of the same compound?
A: 1 of 6

Q: What does the source list for CN(C)c1nnc([N+](=O)[O-])s1?
A: survivor count (dose: 256.0 mg/kg/injection, schedule: Q04DX003 (ip), vehicle: Klucel (hydroxypropylcellulose) (HPC)): 4 of 6; survivor count (dose: 512.0 mg/kg/injection, schedule: Q04DX003 (ip), vehicle: Klucel (hydroxypropylcellulose) (HPC)): 2 of 6

Q: Which results are given for CC(C)(Br)C(=O)c1ccc([N+](=O)[O-])o1?
A: survivor count (dose: 12.5 mg/kg/injection, schedule: Q01DX009 (ip), vehicle: saline with Tween-80): 6 of 6; survivor count (dose: 25.0 mg/kg/injection, schedule: Q01DX009 (ip), vehicle: saline with Tween-80): 6 of 6; survivor count (dose: 50.0 mg/kg/injection, schedule: Q01DX009 (ip), vehicle: saline with Tween-80): 6 of 6; survivor count (dose: 100.0 mg/kg/injection, schedule: Q01DX009 (ip), vehicle: saline with Tween-80): 4 of 6 and 5 of 6; survivor count [1]: 6 of 6; survivor count [2]: 2 of 6

Q: What does the source list for CCCCCCCCCCCCCCCCNCC(O)CN (stereo not drawn)?
A: survivor count (dose: 100.0 mg/kg/injection, schedule: Q04DX002 (ip), vehicle: saline): 0 of 3; survivor count (dose: 200.0 mg/kg/injection, schedule: Q04DX002 (ip), vehicle: saline): 0 of 3; survivor count (dose: 400.0 mg/kg/injection, schedule: Q04DX002 (ip), vehicle: saline): 0 of 3

Q: Which survivor count (dose: 150.0 mg/kg/injection, schedule: Q01DX009 (ip), vehicle: DMSO) does the source give for CCC/C=N/Nc1ccnc(SCc2ccccc2)n1 here?
A: 3 of 6

Q: What about the survivor count (dose: 300.0 mg/kg/injection, schedule: Q01DX009 (ip), vehicle: DMSO) of the same compound?
A: 1 of 6

Q: For CC(COC(=O)c1ccc(N)cc1)NC1CCCCC1 (stereo not drawn), which survivor count (dose: 300.0 mg/kg/injection, schedule: Q01DX001 (ip), vehicle: other) is on record?
A: 0 of 6

Q: Which survivor count [3] does the source give for Cc1ccc(S(=O)(=O)[N-][n+]2ccccc2)cc1 here?
A: 1 of 6
